Experimental data from patent US20220249426A1, “INHIBITORS OF THE STING PATHWAY FOR THE TREATMENT OF HIDRADENITIS SUPPURATIVA” (INSERM (INSTITUT NATIONAL DE LA SANTÉ ET DE LA RECHERCH …, priority 2019, published 2022).
At least one structure is not confirmed: it was looked up by name or label, or the drawing left a doubt.

Tested on: HS-ORS
Assay: mRNA quantification of ISGs in HS-ORS treated with drugs targeting the IFN pathway
Format: cell-based, human
Settings: for levels of IFI27 transcripts / levels of IP10 transcripts / levels of MX1 transcripts / levels of OAS1 transcripts: compared to ORS treated with DMSO
Procedure: FIG. 2: Outer root sheath (ORS) cells from two patients were treated with two drugs (A. Ruxolitinib B. H151) targeting the interferon (IFN) pathway. mRNA levels of MX1, IP10, IFI27 and OAS1 in ORS. HS-ORS (n=2) were treated with two drugs during 24 hours before performing mRNA quantification.
ORS cells were lysed with RLT Plus Buffer (Qiagen). The RNA was extracted using the RNeasy Plus Mini Kit (Qiagen) according to the manufacturer's protocol then converted into cDNA using the QuantiTect Reverse Transcription Kit (Qiagen) for IFNβ detection and the High-Capacity cDNA Reverse Transcription Kit (Applied Biosystems, Thermo Fisher Scientific) for the expression of other genes.
For real-time PCR analysis of the cDNA samples thus obtained, we prepared custom-made primer sets using the Brilliant II SYBR green QPCR master mix (Agilent Technologies) or Quantitect SYBR Green PCR Kit (Qiagen) according to the manufacturers' protocols. Real-time PCR was performed on a MX3000P device (Agilent). The GAPDH or OAZ1 mRNA level was used for normalization. The relative expression (ΔCt) of mRNAs of each gene was computed using GAPDH or OAZ-1 expression as the reference.
We used two drugs targeting IFN pathway. HS-ORS (n=2) were treated with drugs during 24 hours before performing mRNA quantification. Four ISGs: MX1, OAS1, IFI27 and IP10 were analyzed.

[1] = first patient, ORS treated 24 hours

N#CC[C@H](C1CCCC1)n1cc(-c2ncnc3[nH]ccc23)cn1 [Ruxolitinib]
levels of IFI27 transcripts (HS-ORS (n=2), 24 hours): reduced levels
levels of IP10 transcripts (HS-ORS (n=2), 24 hours): reduced levels
levels of MX1 transcripts (HS-ORS (n=2), 24 hours): reduced levels
levels of OAS1 transcripts (HS-ORS (n=2), 24 hours): reduced levels
levels of IFI27 transcripts [1]: same profile
levels of IP10 transcripts [1]: same profile
levels of MX1 transcripts [1]: same profile
levels of OAS1 transcripts [1]: except for OAS1 transcripts
ISGs transcripts (patient 2, ORS treated 24 hours): decrease
